# PubChem BioAssay AID1671195 | Yale University | 2021
# Aim: 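Knockdowns that increase or decrease uptake of fluorescent LDL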 (primary screen)
# System: human Huh7 hepatoma cells
# Reagents: siRNA pool against human genes, 18 nM
# Time to read-out: about 2 to 2.5 days of knockdown, then 8 h LDL uptake
# Conditions: DiI-labelled LDL at 30 µg/ml for 8 h, in lipoprotein-deficient serum medium
# Measurement: 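Fluorescent LDL signal imaged in cells, scaled to the plate median, robust z-score for each replicate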
# Reading the numbers: robust z-score: higher = more LDL uptake after knockdown
# Rule for the call: 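a gene counts as active if at least two replicate z-scores exceed ±2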
# Here is an unselected part of about 22,000 reagents. Over the whole deposit, about 1,510 (6.9%) got an active call. 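Active includes knockdowns raising or lowering LDL uptake; positive z-scores mean more uptake, negative mean less.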 Unmarked entries are inactive.
gene,"robust z-score, replicate 1","robust z-score, replicate 2","robust z-score, replicate 3"
MITF,1.67,0.525,1.33
GLT1D1,0.781,1.13,0.148
LOC441497 (retired record),0.334,0.245,0.000324
C2CD4C,1.63,1.71,2.14
SLC30A9,0.0742,0.459,-0.884
ENKUR,0.013,-0.497,-0.339
DNAH2,0.509,-0.276,0.294
PDE4D,-1.81,-1.6,-1.93
GPR26,0.131,0.534,0.344
LOC153297 (retired record),-0.715,-1.22,0.257
CFHR5,-0.678,0.251,0.404
KIF18B,-0.996,0.149,-0.621
ZNF599,1.83,0.948,1.1
SAXO5,-0.329,-0.162,0.0665
OR2A14,3.92 (active),3.47,5.21
FXN,2.18,1.33,1.75
RHBDF1P1,-1.26,-1.22,-1.56
NAPA,1.33,1.69,3.06
CFAP100,0.937,1.85,1.76
AKAP13,0.764,0.421,0.992
SNX27,-2.08 (active),-2.24,-2.01
SNRPB2,-1.23,-1.13,-1.46
ARHGEF28,0.0597,-0.7,0.0773
MS4A6A,-0.78,-1.15,-1.42
ZGPAT,-0.471,-0.0935,-0.0103
LOC388716 (retired record),-0.104,0.0485,-0.216
GLI4,-0.211,0.358,-0.178
ANGPTL6,-1.25,-0.943,-0.311

Looked up above:
For “robust z-score, replicate 1”, SAXO5 shows -0.329
Entry for SNRPB2 in “robust z-score, replicate 2”: -1.13
Value of DNAH2 under “robust z-score, replicate 1”: 0.509
